These are yes or no findings as the source states them, for the method shown. Binding seen in cells or lysates may run through a third protein. Some binding calls cover weakened binding; strength is not graded here.
Biological target: T1, FBXO31, endogenous in mouse embryonic fibroblasts (mouse (endogenous in MEF)) (UniProt Q3TQF0)
T1 sequence: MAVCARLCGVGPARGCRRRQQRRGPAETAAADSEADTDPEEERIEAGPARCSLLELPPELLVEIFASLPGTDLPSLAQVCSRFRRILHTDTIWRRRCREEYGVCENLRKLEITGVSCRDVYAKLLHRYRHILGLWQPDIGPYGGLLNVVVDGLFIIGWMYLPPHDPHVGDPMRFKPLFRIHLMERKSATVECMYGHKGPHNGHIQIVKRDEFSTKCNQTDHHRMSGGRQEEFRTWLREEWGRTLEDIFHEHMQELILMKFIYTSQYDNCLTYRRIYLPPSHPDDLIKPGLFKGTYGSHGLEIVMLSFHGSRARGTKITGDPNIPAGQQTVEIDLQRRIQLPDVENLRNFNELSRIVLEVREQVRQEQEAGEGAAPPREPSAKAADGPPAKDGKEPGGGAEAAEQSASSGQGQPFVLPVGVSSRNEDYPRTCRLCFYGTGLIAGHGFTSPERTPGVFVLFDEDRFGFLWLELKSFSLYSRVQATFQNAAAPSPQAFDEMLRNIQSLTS
Assay: co-IP

binding: binds
Substance: γH2AX, endogenous in mouse embryonic fibroblasts (from UniProt P27661 1-143)

— paper doi:10.1101/2024.06.03.596644
